Common to all, as to test: two-hybrid
Experiment [1] has as its target T1, SRRM4 (human) (UniProt A7MD48).
T1 sequence: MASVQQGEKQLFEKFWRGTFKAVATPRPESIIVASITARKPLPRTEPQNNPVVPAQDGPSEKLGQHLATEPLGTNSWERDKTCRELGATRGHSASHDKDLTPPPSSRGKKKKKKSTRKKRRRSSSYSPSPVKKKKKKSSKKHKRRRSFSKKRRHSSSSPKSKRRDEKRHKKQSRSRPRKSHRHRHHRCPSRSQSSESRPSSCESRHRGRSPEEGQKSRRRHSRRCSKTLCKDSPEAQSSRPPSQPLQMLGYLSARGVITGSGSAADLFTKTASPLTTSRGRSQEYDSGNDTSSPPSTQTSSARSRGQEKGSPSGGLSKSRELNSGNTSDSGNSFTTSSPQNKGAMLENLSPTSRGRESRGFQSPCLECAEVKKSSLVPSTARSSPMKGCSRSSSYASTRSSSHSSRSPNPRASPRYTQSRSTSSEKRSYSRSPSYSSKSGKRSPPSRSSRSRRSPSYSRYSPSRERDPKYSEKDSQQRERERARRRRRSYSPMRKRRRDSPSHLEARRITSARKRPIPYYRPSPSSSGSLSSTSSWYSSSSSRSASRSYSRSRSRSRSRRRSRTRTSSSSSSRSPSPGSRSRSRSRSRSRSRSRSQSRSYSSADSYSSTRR

By UniProt entry, the sequences of proteins in these tests, tags left out.
UniProt Q9UKA9: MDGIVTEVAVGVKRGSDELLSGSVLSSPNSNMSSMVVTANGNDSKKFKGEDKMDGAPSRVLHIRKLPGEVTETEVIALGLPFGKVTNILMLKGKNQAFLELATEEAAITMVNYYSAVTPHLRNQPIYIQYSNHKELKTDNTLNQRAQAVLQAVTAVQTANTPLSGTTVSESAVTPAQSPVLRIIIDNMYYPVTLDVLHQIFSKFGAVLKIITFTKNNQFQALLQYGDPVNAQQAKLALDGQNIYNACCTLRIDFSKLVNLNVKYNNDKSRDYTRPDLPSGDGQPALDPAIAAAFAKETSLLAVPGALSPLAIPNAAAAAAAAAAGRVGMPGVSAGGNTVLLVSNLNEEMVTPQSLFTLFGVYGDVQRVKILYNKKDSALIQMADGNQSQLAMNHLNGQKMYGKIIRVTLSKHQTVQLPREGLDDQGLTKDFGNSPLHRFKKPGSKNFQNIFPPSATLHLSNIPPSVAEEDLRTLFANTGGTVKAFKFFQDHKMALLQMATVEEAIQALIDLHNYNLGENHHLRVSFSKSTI
UniProt P26599: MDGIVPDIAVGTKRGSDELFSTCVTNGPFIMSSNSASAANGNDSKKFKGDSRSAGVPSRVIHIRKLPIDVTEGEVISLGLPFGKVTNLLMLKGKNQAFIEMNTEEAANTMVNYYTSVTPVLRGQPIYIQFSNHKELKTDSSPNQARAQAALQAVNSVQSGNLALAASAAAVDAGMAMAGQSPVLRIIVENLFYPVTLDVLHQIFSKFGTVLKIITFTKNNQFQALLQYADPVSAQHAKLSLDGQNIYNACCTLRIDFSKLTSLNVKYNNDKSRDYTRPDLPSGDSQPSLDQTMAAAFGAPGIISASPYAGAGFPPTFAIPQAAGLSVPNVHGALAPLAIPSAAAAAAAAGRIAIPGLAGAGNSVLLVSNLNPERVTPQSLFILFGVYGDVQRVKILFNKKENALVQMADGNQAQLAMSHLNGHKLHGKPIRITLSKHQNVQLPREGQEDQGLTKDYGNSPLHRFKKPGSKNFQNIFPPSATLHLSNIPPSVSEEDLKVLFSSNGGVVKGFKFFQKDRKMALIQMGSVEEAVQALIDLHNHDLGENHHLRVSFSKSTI

In experiment [2] the target is PTBP2 (human) (UniProt Q9UKA9).
For experiment [3], the target named is T2, NEXT component RBM7 (human) (UniProt Q9Y580).
T2 sequence: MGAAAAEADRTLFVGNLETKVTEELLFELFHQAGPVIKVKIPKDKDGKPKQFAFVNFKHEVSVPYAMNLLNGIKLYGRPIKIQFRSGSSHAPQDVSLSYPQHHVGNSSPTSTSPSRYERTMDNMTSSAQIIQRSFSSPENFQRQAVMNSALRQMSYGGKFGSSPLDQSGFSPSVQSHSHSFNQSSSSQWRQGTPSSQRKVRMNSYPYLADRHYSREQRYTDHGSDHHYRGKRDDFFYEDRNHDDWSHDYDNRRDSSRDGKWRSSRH

The target of experiment [4] is PTBP1 (human) (UniProt P26599).
Experiment [5] concerns the target U2AF2 (human), P26368. Conditions: remark: other sources report otherwise.

Results are given in words; binding and its absence hold for the method and conditions named. Some entries that bind do so weakly or less than the wild type.

B1: RNPS1 (protein, UniProt Q15287 1-305)
chain: MDLSGVKKKSLLGVKENNKKSSTRAPSPTKRKDRSDEKSKDRSKDKGATKESSEKDRGRDKTRKRRSASSGSSSTRSRSSSTSSSGSSTSTGSSSGSSSSSASSRSGSSSTSRSSSSSSSSGSPSPSRRRHDNRRRSRSKSKPPKRDEKERKRRSPSPKPTKVHIGRLTRNVTKDHIMEIFSTYGKIKMIDMPVERMHPHLSKGYAYVEFENPDEAEKALKHMDGGQIDGQEITATAVLAPWPRPPPRRFSPPRRMLPPPPMWRRSPPRMRRRSRSPRRRSPVRRRSRSPGRRRHRSRSSSNSSR
Take B1: in experiment [1], the binding entry is “binds”.

B2: RBM10 I316F (protein, UniProt P98175 1-930)
chain: MEYERRGGRGDRTGRYGATDRSQDDGGENRSRDHDYRDMDYRSYPREYGSQEGKHDYDDSSEEQSAEDSYEASPGSETQRRRRRRHRHSPTGPPGFPRDGDYRDQDYRTEQGEEEEEEEDEEEEEKASNIVMLRMLPQAATEDDIRGQLQSHGVQAREVRLMRNKSSGQSRGFAFVEFSHLQDATRWMEANQHSLNILGQKVSMHYSDPKPKINEDWLCNKCGVQNFKRREKCFKCGVPKSEAEQKLPLGTRLDQQTLPLGGRELSQGLLPLPQPYQAQGVLASQALSQGSEPSSENANDTIILRNLNPHSTMDSFLGALAPYAVLSSSNVRVIKDKQTQLNRGFAFIQLSTIVEAAQLLQILQALHPPLTIDGKTINVEFAKGSKRDMASNEGSRISAASVASTAIAAAQWAISQASQGGEGTWATSEEPPVDYSYYQQDEGYGNSQGTESSLYAHGYLKGTKGPGITGTKGDPTGAGPEASLEPGADSVSMQAFSRAQPGAAPGIYQQSAEASSSQGTAANSQSYTIMSPAVLKSELQSPTHPSSALPPATSPTAQESYSQYPVPDVSTYQYDETSGYYYDPQTGLYYDPNSQYYYNAQSQQYLYWDGERRTYVPALEQSADGHKETGAPSKEGKEKKEKHKTKTAQQIAKDMERWARSLNKQKENFKNSFQPISSLRDDERRESATADAGYAILEKKGALAERQHTSMDLPKLASDDRPSPPRGLVAAYSGESDSEEEQERGGPEREEKLTDWQKLACLLCRRQFPSKEALIRHQQLSGLHKQNLEIHRRAHLSENELEALEKNDMEQMKYRDRAAERREKYGIPEPPEPKRRKYGGISTASVDFEQPTRDGLGSDNIGSRMLQAMGWKEGSGLGRKKQGIVTPIEAQTRVRGSGLGARGSSYGVTSTESYKETLHKTMVTRFNEAQ
Turning to B2, the binding entry in experiment [2], in experiment [3] and in experiment [4] was “no binding” each time.

B3: RBM10 R343G (protein, UniProt P98175 1-930)
chain: MEYERRGGRGDRTGRYGATDRSQDDGGENRSRDHDYRDMDYRSYPREYGSQEGKHDYDDSSEEQSAEDSYEASPGSETQRRRRRRHRHSPTGPPGFPRDGDYRDQDYRTEQGEEEEEEEDEEEEEKASNIVMLRMLPQAATEDDIRGQLQSHGVQAREVRLMRNKSSGQSRGFAFVEFSHLQDATRWMEANQHSLNILGQKVSMHYSDPKPKINEDWLCNKCGVQNFKRREKCFKCGVPKSEAEQKLPLGTRLDQQTLPLGGRELSQGLLPLPQPYQAQGVLASQALSQGSEPSSENANDTIILRNLNPHSTMDSILGALAPYAVLSSSNVRVIKDKQTQLNGGFAFIQLSTIVEAAQLLQILQALHPPLTIDGKTINVEFAKGSKRDMASNEGSRISAASVASTAIAAAQWAISQASQGGEGTWATSEEPPVDYSYYQQDEGYGNSQGTESSLYAHGYLKGTKGPGITGTKGDPTGAGPEASLEPGADSVSMQAFSRAQPGAAPGIYQQSAEASSSQGTAANSQSYTIMSPAVLKSELQSPTHPSSALPPATSPTAQESYSQYPVPDVSTYQYDETSGYYYDPQTGLYYDPNSQYYYNAQSQQYLYWDGERRTYVPALEQSADGHKETGAPSKEGKEKKEKHKTKTAQQIAKDMERWARSLNKQKENFKNSFQPISSLRDDERRESATADAGYAILEKKGALAERQHTSMDLPKLASDDRPSPPRGLVAAYSGESDSEEEQERGGPEREEKLTDWQKLACLLCRRQFPSKEALIRHQQLSGLHKQNLEIHRRAHLSENELEALEKNDMEQMKYRDRAAERREKYGIPEPPEPKRRKYGGISTASVDFEQPTRDGLGSDNIGSRMLQAMGWKEGSGLGRKKQGIVTPIEAQTRVRGSGLGARGSSYGVTSTESYKETLHKTMVTRFNEAQ
With B3, the binding entry in experiment [2], in experiment [3] and in experiment [4] was “no binding” each time.

B4: RBM10 V354E (protein, UniProt P98175 1-930)
chain: MEYERRGGRGDRTGRYGATDRSQDDGGENRSRDHDYRDMDYRSYPREYGSQEGKHDYDDSSEEQSAEDSYEASPGSETQRRRRRRHRHSPTGPPGFPRDGDYRDQDYRTEQGEEEEEEEDEEEEEKASNIVMLRMLPQAATEDDIRGQLQSHGVQAREVRLMRNKSSGQSRGFAFVEFSHLQDATRWMEANQHSLNILGQKVSMHYSDPKPKINEDWLCNKCGVQNFKRREKCFKCGVPKSEAEQKLPLGTRLDQQTLPLGGRELSQGLLPLPQPYQAQGVLASQALSQGSEPSSENANDTIILRNLNPHSTMDSILGALAPYAVLSSSNVRVIKDKQTQLNRGFAFIQLSTIEEAAQLLQILQALHPPLTIDGKTINVEFAKGSKRDMASNEGSRISAASVASTAIAAAQWAISQASQGGEGTWATSEEPPVDYSYYQQDEGYGNSQGTESSLYAHGYLKGTKGPGITGTKGDPTGAGPEASLEPGADSVSMQAFSRAQPGAAPGIYQQSAEASSSQGTAANSQSYTIMSPAVLKSELQSPTHPSSALPPATSPTAQESYSQYPVPDVSTYQYDETSGYYYDPQTGLYYDPNSQYYYNAQSQQYLYWDGERRTYVPALEQSADGHKETGAPSKEGKEKKEKHKTKTAQQIAKDMERWARSLNKQKENFKNSFQPISSLRDDERRESATADAGYAILEKKGALAERQHTSMDLPKLASDDRPSPPRGLVAAYSGESDSEEEQERGGPEREEKLTDWQKLACLLCRRQFPSKEALIRHQQLSGLHKQNLEIHRRAHLSENELEALEKNDMEQMKYRDRAAERREKYGIPEPPEPKRRKYGGISTASVDFEQPTRDGLGSDNIGSRMLQAMGWKEGSGLGRKKQGIVTPIEAQTRVRGSGLGARGSSYGVTSTESYKETLHKTMVTRFNEAQ
On to B4, for which the binding result in experiment [2], in experiment [3] and in experiment [4] was “no binding” throughout.

B5: U2AF1, Q01081 1-240 (protein)
chain: MAEYLASIFGTEKDKVNCSFYFKIGACRHGDRCSRLHNKPTFSQTIALLNIYRNPQNSSQSADGLRCAVSDVEMQEHYDEFFEEVFTEMEEKYGEVEEMNVCDNLGDHLVGNVYVKFRREEDAEKAVIDLNNRWFNGQPIHAELSPVTDFREACCRQYEMGECTRGGFCNFMHLKPISRELRRELYGRRRKKHRSRSRSRERRSRSRDRGRGGGGGGGGGGGGRERDRRRSRDRERSGRF
Consider B5, for which the binding result in experiment [5] is reported as “binds”.

B6: SRSF11 (protein, UniProt Q05519 1-484)
chain: MSNTTVVPSTAGPGPSGGPGGGGGGGGGGGGTEVIQVTNVSPSASSEQMRTLFGFLGKIDELRLFPPDDSPLPVSSRVCFVKFHDPDSAVVAQHLTNTVFVDRALIVVPYAEGVIPDEAKALSLLAPANAVAGLLPGGGLLPTPNPLTQIGAVPLAALGAPTLDPALAALGLPGANLNSQSLAADQLLKLMSTVDPKLNHVAAGLVSPSLKSDTSSKEIEEAMKRVREAQSLISAAIEPDKKEEKRRHSRSRSRSRRRRTPSSSRHRRSRSRSRRRSHSKSRSRRRSKSPRRRRSHSRERGRRSRSTSKTRDKKKEDKEKKRSKTPPKSYSTARRSRSASRERRRRRSRSGTRSPKKPRSPKRKLSRSPSPRRHKKEKKKDKDKERSRDERERSTSKKKKSKDKEKDRERKSESDKDVKQVTRDYDEEEQGYDSEKEKKEEKKPIETGSPKTKECSVEKGTGDSLRESKVNGDDHHEEDMDMSD
Turning to B6, in experiment [1], the binding entry was “binds”.

B7: SRRM3 (protein, UniProt A6NNA2 1-597)
chain: MSSTVNNGAASMQSTPDAANGFPQPSSSSGTWPRAEEELRAAEPGLVKRAHREILDHERKRRVELKCMELQEMMEEQGYSEEEIRQKVGTFRQMLMEKEGVLTREDRPGGHIVAETPRLTEGAEPGLEYAPFDDDDGPVDCDCPASCYRGHRGYRTKHWSSSSASPPPKKKKKKKGGHRRSRKKRRLESECSCGSSSPLRKKKKSVKKHRRDRSDSGSRRKRRHRSRSSKCKRKEKNKEKKRPHTESPGRRSHRHSSGSSHSPSLSSHYSDSRSPSRLSPKHRDEGRKTGSQRSSGSRSPSPSGGSGWGSPQRNGGSGQRSGAHGGRPGSAHSPPDKPSSPSPRVRDKAAAAAPTPPARGKESPSPRSAPSSQGRGGRAAGGAGRRRRRRRRRRRSRSSASAPRRRGRRRPRPAPPRGSSRSLSRARSSSDSGSGRGAPGPGPEPGSERGHGGHGKRAKERPPRARPASTSPSPGAHGRRGGPEGKSSSRSPGPHPRSWSSSRSPSKSRSRSAEKRPHSPSRSPSPKKPLSRDKDGEGRARHSEAEATRARRRSRSYSPIRKRRRDSPSFMEPRRITSAASVLFHTTGPAPLPPPAA
In the case of B7, the binding result in experiment [1] is given as “binds”.

(Values after publication doi:10.1101/2020.09.14.296160.)
